Measurements as given in PubChem BioAssay AID2685 (National Center for Advancing Translational Sciences (NCATS), 2010).
Some of the results follow. These are further read-outs of the screen, such as a control signal, another cell line or another target. No call is given for them. Compounds called inactive in the main read-out are mostly missing here. Words in brackets tell the shape of the fitted curve; partial curves, single points and poor fits give uncertain potencies.

Assay: qHTS Assay for Lipid Storage Modulators in Drosophila S3 Cells;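 on cell number change: cells counted by Cell Tracker Red CMTPX staining in the red channel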
Conditions: BODIPY lipid droplet fluorescence, 18-24 h; for cell number change: measured here: cell count max response, cells fed with added oleic acid
Method in brief: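 Drosophila S3 cells got compounds at several concentrations plus oleic acid (400 uM solution). Laser-scanning cytometry with 488 nm excitation read lipid droplets at 500-530 nm and cells at 575-640 nm. Percent activity was relative to 20 uM Triacsin C.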

[1] = measured here: cell number channel AC50, cells fed with added oleic acid
[2] = measured here: lipid fluorescence (Fed channel) AC50, cells fed with added oleic acid

Row | SMILES | AC50 [1] | AC50 [2] | cell number change [%]
1 | Clc1ccc(CSc2nnc(-c3cccnc3)n2Cc2ccco2)c(Cl)c1 | 1840 nM [rising, single point] | 29100 nM [rising, single point] | 
2 | O=C(OCc1nc2ccccc2[nH]1)C12CC3CC(CC(C3)C1)C2 | 16400 nM [falling, partial curve, poor fit] | 32600 nM [falling, partial curve, poor fit] | -69.7
3 | Cc1cc(C)c(C)c(OCC(=O)O/N=C(\N)c2ccncc2)c1 |  |  | 10.5
4 | Cc1cc(OCC(=O)OCC(=O)NCc2ccco2)ccc1Cl |  |  | -8.84
5 | CN(C)C=NC(=O)c1cc(C(=O)c2ccccc2Cl)c[nH]1 | 326 nM [rising, full curve] |  | 40
6 | CC(NC(=O)Nc1ccc(F)cc1F)c1ccncc1 (configuration not stated) |  |  | 6.35
7 | O=[N+]([O-])c1ccc2c(c1)nc(CO)n2Cc1ccccc1 |  |  | -7.37
8 | CCN(CC)C(=O)c1[nH]cnc1C(=O)Nc1cccc(Cl)c1 | 25900 nM [falling, single point] |  | -31
9 | COCCNC(=O)c1cc(-c2ccccn2)nc2ccc(S(=O)(=O)N3CCC(C)CC3)cc12 |  | 29100 nM [rising, single point] | 
10 | C=CCOc1ccc(NC(=O)C(=O)NCCCn2ccnc2)cc1 |  |  | -23.7
11 | CC(=O)Nc1ccc(S(=O)(=O)Nc2cc(C)cn(Cc3ccccc3)c2=O)cc1 | 20600 nM [rising, single point] | 651 nM [falling, partial curve, poor fit] | 55.2
12 | COC(=O)c1sccc1NC(=O)C1C2C=CC(O2)C1C(=O)O (configuration not stated) |  | 259 nM [falling, full curve, poor fit] | -2.29
13 | CC(=O)Nc1cccc(Oc2ccc([N+](=O)[O-])cc2Cl)c1 | 32600 nM [rising, single point] |  | 37.9
14 | COc1cc(C2C(C(=O)c3ccc(C)o3)=C(O)C(=O)N2c2cc(C)on2)cc(OC)c1OC (configuration not stated) |  | 5.17 nM [rising, full curve, poor fit] | -22.2
15 | N#Cc1ccc(C(=O)CN2CCN(c3ccccc3)CC2)cc1 |  |  | -3.85
16 | CCc1cccc(C)c1NC(=O)Cc1ccsc1 |  |  | -4.17
17 | Cc1ccc(C)c(SCC(=O)OC/C(O)=C(\C#N)c2nc3ccccc3[nH]2)c1 |  | 29100 nM [falling, single point] | -29.6
18 | CC(=O)Nc1c(O)n(C)c2ccccc12 | 651 nM [falling, partial curve, poor fit] | 65.1 nM [falling, full curve, poor fit] | -8.01
19 | Cc1cc2nc(N3C(=O)CNC3=S)sc2cc1C |  | 20600 nM [falling, partial curve] | -30.1
20 | COc1cc2cc(CN(Cc3cccnc3)C(=O)NCc3ccccc3)c(=O)[nH]c2cc1OC |  | 146 nM [rising, full curve, poor fit] | 22.9

Gathered by group: the compounds so far containing an aryl thioether with sulfur outside any ring.
Row | SMILES | AC50 [1] | AC50 [2] | cell number change [%]
1 | Clc1ccc(CSc2nnc(-c3cccnc3)n2Cc2ccco2)c(Cl)c1 | 1840 nM [rising, single point] | 29100 nM [rising, single point] | 
17 | Cc1ccc(C)c(SCC(=O)OC/C(O)=C(\C#N)c2nc3ccccc3[nH]2)c1 |  | 29100 nM [falling, single point] | -29.6

The results go on:

Row | SMILES | AC50 [1] | AC50 [2] | cell number change [%]
21 | COCCCNC(=O)c1ccc2c(c1)OCO2 | 29100 nM [rising, partial curve, poor fit] | 29100 nM [rising, partial curve] | 87.9
22 | O=C(N/N=C1\CC(c2ccccc2)Oc2ccccc21)c1cccnc1 (configuration not stated) |  | 206 nM [rising, full curve, poor fit] | -8.27
23 | CCOc1ncccc1C(=O)NCc1ccccc1 |  |  | 2.67
24 | O=C(Nc1cccc(C(F)(F)F)c1)NC1CCN(S(=O)(=O)c2ccc(F)cc2)CC1 | 2060 nM [rising, partial curve] |  | 
25 | CCc1ccc(C2=NN(CCC(=O)NC3CCCCCC3)C(=O)CC2)cc1 |  | 92 nM [rising, full curve] | -28.1
26 | O=C(CCC(=O)N1CCCC1)Nc1nnc(C2CCCCC2)s1 |  | 3660 nM [rising, single point] | 9.71
27 | CCC(=O)Nc1nnc(S(=O)(=O)N(CC)c2cc(C)cc(C)c2)s1 |  | 29100 nM [rising, single point] | 23.4
28 | Cn1c(NC(=O)c2ccco2)c(-c2ccccc2)c(=O)c2ccccc21 | 820 nM [falling, partial curve] |  | 
29 | CS(=O)c1ccccc1COC(=O)Nc1ccccc1 (configuration not stated) | 29100 nM [rising, partial curve, poor fit] | 411 nM [rising, partial curve] | 56.1
30 | COc1ccc(OCCOC(=O)c2ccc(-n3cnnn3)cc2)cc1 |  | 2310 nM [rising, single point] | 2.47
31 | O=C(Nc1cccc(S(=O)(=O)N2CCCCC2)c1)C1CC(=O)N(c2ccc3c(c2)OCCO3)C1 (configuration not stated) |  |  | -22.6
32 | COC(=O)C(Cc1ccccc1)NC(=O)CNC(=O)c1sc2ccccc2c1Cl (configuration not stated) |  | 1160 nM [falling, single point] | 
33 | CCN(CC)C(=S)NC(=O)C12CC3CC(CC(C3)C1)C2 | 116 nM [falling, full curve, poor fit] | 103 nM [falling, full curve, poor fit] | -21.8
34 | Cc1ccccc1-c1noc(CCC(=O)NCC2CCCO2)n1 (configuration not stated) |  |  | 22.7
35 | Cc1[nH]c2ccc(C(=O)N3CCN(Cc4ccccc4)CC3)cc2c1C | 20600 nM [rising, single point] |  | 36.9
36 | O=C1C(C=NCCCN2CCCC2=O)=C(O)c2ccccc21 | 6510 nM [falling, single point] |  | -7.49
37 | CCOc1ccccc1NS(=O)(=O)c1cccc2nsnc12 | 580 nM [falling, single point] | 29100 nM [falling, single point] | 
38 | CC(=O)Nc1sc2c(c1C(c1ccccc1)N1CCOCC1)CCCC2 (configuration not stated) |  | 6510 nM [rising, single point] | 
39 | NC(=O)C(c1ncc(C(F)(F)F)cc1Cl)c1c(Cl)cccc1Cl (configuration not stated) |  | 231 nM [falling, full curve, poor fit] | -3.16
40 | Cc1ccccc1C1NC(=O)Cc2ccccc21 (configuration not stated) | 20600 nM [rising, partial curve] | 184 nM [rising, full curve] | 86.1
